{"source": "paper PMC7554696", "about": "(International Journal of Molecular Sciences, 2020)", "assay": "general procedure: peptide synthesis; isobutyl chloroformate / TEA (mixed anhydride)", "note": "Some peptides are written in HELM: one residue between dots, names in brackets for other building blocks, links after the first $.", "data": [{"substance": "Fmoc–Leu–Ala–Gly–Gly–DOX", "values": [{"measurement": "conjugation yield", "setting": "conjugation step", "value": 75, "unit": "%"}]}, {"substance": "PEPTIDE1{L.A.G.G.[DOX]}$$$$V2.0", "values": [{"measurement": "difficulty met", "setting": "late stage modification step", "value": "we obtained the desired product in a very poor yield"}, {"measurement": "step yield", "setting": "late stage modification step", "value": 61, "unit": "%"}]}]}
